Test results taken from patent US20090074680A1 (QUEEN MARY & WESTFIELD COLLEGE, priority 2005, published 2009).

Protein sequences, listed by entry. Tags and fused reporters are not part of them. Lines headed by an entry give the natural chain unless they say otherwise; changes in a name come on top.
UniProt P02808: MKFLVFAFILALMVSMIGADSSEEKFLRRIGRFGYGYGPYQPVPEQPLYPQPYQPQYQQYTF

Assay: peptide made by a vendor (Fmoc solid-phase peptide synthesis)
Conditions: whole synthesis

DpSpSEEKFLRRIGRFGYGYGPY (DSSEEKFLRRIGRFGYGYGPY; Statherin phosphoserines at positions 2 and 3; UniProt P02808 20-40, looked up, fragment)
purity (crude or final not stated): >95%
